Results are given in words; binding and its absence hold for the method and conditions named. Binding seen in cells or lysates may run through a third protein. Sequences can lack the tags named with a protein. One block for each molecule: values may come before it.
Biological target: T1, MGA p.C623* (Flag-tagged truncation of Max-gene associated protein) (human) (UniProt Q8IWI9)
T1 sequence: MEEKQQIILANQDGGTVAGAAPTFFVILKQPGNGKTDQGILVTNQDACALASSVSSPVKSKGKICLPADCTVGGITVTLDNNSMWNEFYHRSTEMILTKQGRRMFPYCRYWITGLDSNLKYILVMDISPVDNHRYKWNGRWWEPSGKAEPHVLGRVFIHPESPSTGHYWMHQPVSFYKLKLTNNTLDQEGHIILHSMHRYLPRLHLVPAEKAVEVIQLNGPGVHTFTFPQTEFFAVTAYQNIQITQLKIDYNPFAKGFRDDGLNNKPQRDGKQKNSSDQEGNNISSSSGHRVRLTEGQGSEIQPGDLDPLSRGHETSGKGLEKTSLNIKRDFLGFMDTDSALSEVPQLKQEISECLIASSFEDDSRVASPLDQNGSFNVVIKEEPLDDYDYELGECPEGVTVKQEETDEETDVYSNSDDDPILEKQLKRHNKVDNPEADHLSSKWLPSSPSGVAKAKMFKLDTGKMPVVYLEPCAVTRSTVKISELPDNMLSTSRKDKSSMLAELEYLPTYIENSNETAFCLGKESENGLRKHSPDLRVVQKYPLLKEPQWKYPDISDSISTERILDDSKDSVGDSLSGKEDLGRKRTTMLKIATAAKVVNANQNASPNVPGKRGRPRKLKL
Assay: co-IP; flag-tagged MGA constructs co-expressed with HA-tagged MAX in HEK293T cells; immunoprecipitation followed by western blot probed for components of the ncPRC1.6 complex

Amino acid sequences for entries named in this document (tags omitted).
UniProt Q969R5: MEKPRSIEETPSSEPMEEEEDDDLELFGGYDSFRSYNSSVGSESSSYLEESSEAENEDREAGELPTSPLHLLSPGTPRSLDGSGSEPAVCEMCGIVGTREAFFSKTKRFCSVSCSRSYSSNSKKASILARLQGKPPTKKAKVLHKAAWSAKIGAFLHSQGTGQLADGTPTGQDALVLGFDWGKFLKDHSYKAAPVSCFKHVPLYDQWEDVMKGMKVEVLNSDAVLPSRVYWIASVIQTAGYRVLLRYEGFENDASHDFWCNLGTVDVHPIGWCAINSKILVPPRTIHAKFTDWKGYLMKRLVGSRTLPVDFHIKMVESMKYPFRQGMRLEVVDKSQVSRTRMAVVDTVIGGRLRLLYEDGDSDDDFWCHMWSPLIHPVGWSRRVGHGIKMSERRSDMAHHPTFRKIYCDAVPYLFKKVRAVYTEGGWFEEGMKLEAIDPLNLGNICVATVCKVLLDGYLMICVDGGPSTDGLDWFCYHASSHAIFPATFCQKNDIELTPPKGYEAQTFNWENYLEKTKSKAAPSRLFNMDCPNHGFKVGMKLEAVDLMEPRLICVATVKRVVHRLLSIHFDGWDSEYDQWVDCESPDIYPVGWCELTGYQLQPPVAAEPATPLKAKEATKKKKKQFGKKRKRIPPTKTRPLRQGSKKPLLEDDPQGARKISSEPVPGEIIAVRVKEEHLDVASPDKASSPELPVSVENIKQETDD

binding: no binding
Molecule: L3MBTL2 (from UniProt Q969R5 1-705)

binding: no binding
B1: PCGF6 (protein, UniProt Q9BYE7 1-350)
chain: MEGVAVVTAGSVGAAKTEGAAALPPPPPVSPPALTPAPAAGEEGPAPLSETGAPGCSGSRPPELEPERSLGRFRGRFEDEDEELEEEEELEEEEEEEEEDMSHFSLRLEGGRQDSEDEEERLINLSELTPYILCSICKGYLIDATTITECLHTFCKSCIVRHFYYSNRCPKCNIVVHQTQPLYNIRLDRQLQDIVYKLVINLEEREKKQMHDFYKERGLEVPKPAVPQPVPSSKGRSKKVLESVFRIPPELDMSLLLEFIGANEGTGHFKPLEKKFVRVSGEATIGHVEKFLRRKMGLDPACQVDIICGDHLLEQYQTLREIRRAIGDAAMQDGLLVLHYGLVVSPLKIT
